We go through one compound from patent publication US5541174A, “Analgesic method” (priority 1995, dated 1996).

Usually ED50 stands for the dose at which the effect has come halfway, by size or by number of responders. One may read the % Inhibition as the percentage by which the read-out fell short of the control.

Experiment [1] has as its system acetic acid induced writhing in mice. The experiment can be described thus: Acetic acid-induced writhing test. The class given is in vivo, ICR male mice. On the procedure:
1. Acetic acid-induced writhing test as described in Koster et al., "Acetic Acid for Analgesic Screening", Fed. Proc. 18, 412 (1959), incorporated by reference herein; and
(§1) Groups of 10 ICR male mice (Taisho Pharmaceutical Co. Research Center) were used to study each dose of every compound. Ligands or complexes were administered orally or subcutaneously in 0.1 ml of vehicle per 10 g of body weight 30 minutes before the intrapertioneal injection of 0.1 ml of 0.7% acetic acid solution per 10 g of body weight. Number of writhes were counted for each mouse during a period of 10 to 20 min after acetic acid injection. Inhibitory percent was calculated by comparison with the number of writhes in the non-treated control, vehicle-treated, and acetic acid-injected group. The ED50 value and 95% confidence limits were calculated from the inhibitory percent by the method of Litchfield and Wilcoxon.

The subject of experiment [2] is acetic acid-induced writhing mouse pain model. In words: Comparison/potentiation of analgesic activity with morphine in the acetic acid-induced writhing mouse pain model. It is filed as in vivo. The procedure: as §1

Regarding `CN1CC[C@]23c4c5ccc(O)c4O[C@H]2[C@@H](O)C=C[C@H]3[C@H]1C5` [morphine, reference compound], the ED50 in experiment [1] (Mus musculus, sc, read-out: ED50 (W)) stood at 2 µmol/kg; in experiment [2] (morphine + Cu(II)2 (indomethacin)4 0.5 umol/kg), 1.0 µmol/kg; in experiment [2] (morphine alone, dose footnote: orally) it was 1.6 µmol/kg. Besides, in experiment [1] (s.c., hydrochloride salt in saline), the “ED50 (W)” value was found to be 0.002 mmol/kg. In addition, the “% Inhibition” value in experiment [1] (s.c., hydrochloride salt in saline, 0.001 mmol/kg) was 35%; in experiment [2] (morphine 1.0 umol/kg + Cu(II)2 (indomethacin)4 0.5 umol/kg), 50%; in experiment [2] (morphine alone 1.0 umol/kg, dose footnote: orally), 35%.
